The source of these data is the supplement of paper PMC10849652.

Protein sequences, listed by entry. Tags and fused reporters are not part of them. Lines headed by an entry give the natural chain unless they say otherwise; changes in a name come on top.
UniProt Q9UET6: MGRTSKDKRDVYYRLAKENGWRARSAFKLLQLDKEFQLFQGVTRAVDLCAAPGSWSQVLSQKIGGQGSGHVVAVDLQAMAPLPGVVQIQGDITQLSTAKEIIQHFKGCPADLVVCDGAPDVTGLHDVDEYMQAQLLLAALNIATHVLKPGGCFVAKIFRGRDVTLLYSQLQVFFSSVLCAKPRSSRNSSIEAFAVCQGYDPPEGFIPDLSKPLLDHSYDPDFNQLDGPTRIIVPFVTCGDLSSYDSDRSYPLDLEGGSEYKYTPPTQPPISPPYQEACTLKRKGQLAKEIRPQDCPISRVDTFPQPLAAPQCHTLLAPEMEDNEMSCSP
UniProt O14893: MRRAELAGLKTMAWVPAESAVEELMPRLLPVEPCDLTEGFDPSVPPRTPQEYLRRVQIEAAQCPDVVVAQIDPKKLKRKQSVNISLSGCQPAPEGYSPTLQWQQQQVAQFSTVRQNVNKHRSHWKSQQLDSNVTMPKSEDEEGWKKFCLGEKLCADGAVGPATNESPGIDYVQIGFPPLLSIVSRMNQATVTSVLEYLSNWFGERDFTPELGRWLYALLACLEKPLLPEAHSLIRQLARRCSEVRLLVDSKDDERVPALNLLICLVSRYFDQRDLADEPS
UniProt Q9UN86: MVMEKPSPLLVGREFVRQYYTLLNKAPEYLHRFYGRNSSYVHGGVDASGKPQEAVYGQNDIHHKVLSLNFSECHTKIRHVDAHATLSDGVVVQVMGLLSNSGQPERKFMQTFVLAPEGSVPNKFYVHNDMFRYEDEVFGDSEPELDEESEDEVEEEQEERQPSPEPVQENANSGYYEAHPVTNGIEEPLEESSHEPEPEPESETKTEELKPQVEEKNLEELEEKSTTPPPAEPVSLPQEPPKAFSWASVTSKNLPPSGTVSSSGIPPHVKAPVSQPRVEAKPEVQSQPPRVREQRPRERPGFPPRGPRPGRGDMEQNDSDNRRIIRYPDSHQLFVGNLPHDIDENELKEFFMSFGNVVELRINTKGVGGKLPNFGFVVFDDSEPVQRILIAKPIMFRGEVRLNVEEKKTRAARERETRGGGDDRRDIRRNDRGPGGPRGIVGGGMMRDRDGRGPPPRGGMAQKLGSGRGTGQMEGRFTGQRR
UniProt P04062: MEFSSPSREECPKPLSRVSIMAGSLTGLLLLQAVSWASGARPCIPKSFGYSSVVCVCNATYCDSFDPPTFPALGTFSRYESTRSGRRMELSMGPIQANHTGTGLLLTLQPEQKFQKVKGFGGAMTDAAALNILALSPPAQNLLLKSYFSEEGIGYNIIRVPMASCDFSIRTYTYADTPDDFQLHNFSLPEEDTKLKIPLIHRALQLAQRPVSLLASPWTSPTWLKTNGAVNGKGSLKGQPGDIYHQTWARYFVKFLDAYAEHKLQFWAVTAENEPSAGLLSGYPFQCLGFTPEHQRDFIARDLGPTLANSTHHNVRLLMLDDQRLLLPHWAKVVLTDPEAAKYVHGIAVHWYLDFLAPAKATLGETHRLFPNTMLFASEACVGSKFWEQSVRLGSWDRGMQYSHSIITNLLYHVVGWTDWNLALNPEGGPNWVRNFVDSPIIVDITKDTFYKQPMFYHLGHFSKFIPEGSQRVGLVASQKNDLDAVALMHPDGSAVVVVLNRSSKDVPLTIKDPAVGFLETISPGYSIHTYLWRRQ
UniProt Q8WXI9: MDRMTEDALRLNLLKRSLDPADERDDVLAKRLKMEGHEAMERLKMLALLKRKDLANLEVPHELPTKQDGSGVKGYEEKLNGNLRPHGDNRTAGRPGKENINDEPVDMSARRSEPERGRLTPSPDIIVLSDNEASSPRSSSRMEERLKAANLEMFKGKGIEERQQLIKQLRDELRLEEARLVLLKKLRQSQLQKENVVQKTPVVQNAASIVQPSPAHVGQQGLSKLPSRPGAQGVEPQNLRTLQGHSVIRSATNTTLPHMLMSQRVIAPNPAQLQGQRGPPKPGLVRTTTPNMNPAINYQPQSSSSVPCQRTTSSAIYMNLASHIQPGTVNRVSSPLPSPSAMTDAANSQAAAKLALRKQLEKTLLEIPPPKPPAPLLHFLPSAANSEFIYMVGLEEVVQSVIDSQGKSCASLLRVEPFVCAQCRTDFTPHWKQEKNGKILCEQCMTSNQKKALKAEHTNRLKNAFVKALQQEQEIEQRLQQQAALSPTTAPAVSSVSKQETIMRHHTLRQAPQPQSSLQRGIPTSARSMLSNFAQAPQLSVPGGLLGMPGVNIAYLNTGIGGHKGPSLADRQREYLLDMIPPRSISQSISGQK
UniProt Q5SZK8: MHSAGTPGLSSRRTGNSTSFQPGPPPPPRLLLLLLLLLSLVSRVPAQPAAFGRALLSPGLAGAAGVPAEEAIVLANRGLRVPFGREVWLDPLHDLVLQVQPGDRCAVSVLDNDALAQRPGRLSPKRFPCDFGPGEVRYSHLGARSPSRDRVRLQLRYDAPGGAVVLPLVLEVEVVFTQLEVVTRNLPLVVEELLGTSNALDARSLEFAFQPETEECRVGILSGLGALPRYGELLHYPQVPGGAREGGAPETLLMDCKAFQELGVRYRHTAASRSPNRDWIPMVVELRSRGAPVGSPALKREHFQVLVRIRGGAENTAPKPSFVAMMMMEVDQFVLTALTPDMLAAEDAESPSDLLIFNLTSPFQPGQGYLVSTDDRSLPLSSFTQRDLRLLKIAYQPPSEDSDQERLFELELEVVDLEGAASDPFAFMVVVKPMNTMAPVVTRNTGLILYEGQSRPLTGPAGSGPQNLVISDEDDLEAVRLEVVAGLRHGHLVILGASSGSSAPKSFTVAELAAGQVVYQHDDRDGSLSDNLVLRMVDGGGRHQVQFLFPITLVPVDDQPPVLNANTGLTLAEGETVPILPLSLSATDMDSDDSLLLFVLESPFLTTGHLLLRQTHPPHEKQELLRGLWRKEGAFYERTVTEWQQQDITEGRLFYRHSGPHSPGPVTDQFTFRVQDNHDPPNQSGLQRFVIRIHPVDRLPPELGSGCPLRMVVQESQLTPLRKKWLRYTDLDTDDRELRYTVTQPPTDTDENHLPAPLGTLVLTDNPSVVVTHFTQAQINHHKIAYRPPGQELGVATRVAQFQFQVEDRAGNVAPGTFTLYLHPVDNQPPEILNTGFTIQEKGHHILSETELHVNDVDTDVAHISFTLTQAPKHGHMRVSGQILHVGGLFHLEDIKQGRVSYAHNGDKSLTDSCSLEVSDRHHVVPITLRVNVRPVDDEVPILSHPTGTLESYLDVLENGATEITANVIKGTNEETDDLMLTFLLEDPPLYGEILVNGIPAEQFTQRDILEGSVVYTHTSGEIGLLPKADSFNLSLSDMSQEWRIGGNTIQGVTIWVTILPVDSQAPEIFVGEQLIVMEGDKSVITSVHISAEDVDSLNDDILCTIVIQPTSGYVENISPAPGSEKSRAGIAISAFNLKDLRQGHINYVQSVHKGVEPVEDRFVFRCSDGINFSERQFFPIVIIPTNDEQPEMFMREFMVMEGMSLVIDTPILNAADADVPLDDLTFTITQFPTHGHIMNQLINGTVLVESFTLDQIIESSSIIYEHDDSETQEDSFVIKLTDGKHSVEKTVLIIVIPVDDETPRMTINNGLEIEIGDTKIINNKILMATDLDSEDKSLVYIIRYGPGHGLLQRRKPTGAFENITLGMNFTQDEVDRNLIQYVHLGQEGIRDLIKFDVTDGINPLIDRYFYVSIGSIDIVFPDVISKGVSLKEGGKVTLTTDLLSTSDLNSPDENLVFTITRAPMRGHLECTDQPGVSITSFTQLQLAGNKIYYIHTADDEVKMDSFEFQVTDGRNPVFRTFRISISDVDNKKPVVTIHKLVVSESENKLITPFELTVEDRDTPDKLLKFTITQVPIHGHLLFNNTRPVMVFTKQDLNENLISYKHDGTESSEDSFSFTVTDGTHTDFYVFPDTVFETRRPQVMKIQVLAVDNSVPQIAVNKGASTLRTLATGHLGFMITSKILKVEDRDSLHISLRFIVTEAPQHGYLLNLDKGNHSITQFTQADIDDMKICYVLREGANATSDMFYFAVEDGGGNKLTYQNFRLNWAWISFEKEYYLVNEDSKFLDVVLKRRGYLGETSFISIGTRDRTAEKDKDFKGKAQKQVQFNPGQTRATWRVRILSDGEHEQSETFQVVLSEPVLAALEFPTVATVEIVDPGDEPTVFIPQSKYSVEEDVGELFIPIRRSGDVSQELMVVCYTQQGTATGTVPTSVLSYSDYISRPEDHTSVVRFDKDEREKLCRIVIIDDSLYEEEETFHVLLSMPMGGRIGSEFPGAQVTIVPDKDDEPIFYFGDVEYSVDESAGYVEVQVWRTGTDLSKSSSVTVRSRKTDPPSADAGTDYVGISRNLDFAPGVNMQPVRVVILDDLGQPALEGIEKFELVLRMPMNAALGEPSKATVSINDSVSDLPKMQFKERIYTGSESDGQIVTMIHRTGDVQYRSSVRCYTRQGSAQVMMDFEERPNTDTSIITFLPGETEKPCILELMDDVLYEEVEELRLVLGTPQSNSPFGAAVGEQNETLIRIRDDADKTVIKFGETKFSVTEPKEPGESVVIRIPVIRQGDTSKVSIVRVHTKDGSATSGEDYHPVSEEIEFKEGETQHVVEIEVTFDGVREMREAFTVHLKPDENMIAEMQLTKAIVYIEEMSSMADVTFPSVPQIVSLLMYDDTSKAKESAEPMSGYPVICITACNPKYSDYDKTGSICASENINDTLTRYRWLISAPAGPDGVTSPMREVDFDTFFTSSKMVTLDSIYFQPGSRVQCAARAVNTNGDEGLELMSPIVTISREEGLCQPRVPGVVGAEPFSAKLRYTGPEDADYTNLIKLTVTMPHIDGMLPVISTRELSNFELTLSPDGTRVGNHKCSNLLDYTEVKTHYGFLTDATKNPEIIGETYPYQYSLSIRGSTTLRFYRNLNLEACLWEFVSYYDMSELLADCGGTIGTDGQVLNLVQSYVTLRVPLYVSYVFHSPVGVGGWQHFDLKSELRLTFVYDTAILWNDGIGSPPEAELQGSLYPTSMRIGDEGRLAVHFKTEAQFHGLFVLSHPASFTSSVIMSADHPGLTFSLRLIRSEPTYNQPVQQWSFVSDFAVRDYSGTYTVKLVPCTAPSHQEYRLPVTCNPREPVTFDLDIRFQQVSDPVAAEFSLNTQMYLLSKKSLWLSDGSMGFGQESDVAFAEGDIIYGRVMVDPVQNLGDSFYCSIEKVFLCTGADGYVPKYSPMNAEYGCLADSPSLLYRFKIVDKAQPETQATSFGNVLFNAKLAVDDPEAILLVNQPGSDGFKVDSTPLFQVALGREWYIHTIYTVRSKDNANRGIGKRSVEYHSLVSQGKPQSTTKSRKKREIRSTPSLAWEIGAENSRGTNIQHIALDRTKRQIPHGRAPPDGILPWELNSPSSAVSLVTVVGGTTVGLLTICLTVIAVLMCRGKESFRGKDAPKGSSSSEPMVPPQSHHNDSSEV
UniProt P55789: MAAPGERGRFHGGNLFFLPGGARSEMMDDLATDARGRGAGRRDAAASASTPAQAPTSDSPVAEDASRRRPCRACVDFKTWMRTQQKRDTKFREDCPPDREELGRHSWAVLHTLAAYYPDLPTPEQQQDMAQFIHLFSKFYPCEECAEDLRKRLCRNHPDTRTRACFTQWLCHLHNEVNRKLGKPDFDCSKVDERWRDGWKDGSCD
UniProt Q8IXK2: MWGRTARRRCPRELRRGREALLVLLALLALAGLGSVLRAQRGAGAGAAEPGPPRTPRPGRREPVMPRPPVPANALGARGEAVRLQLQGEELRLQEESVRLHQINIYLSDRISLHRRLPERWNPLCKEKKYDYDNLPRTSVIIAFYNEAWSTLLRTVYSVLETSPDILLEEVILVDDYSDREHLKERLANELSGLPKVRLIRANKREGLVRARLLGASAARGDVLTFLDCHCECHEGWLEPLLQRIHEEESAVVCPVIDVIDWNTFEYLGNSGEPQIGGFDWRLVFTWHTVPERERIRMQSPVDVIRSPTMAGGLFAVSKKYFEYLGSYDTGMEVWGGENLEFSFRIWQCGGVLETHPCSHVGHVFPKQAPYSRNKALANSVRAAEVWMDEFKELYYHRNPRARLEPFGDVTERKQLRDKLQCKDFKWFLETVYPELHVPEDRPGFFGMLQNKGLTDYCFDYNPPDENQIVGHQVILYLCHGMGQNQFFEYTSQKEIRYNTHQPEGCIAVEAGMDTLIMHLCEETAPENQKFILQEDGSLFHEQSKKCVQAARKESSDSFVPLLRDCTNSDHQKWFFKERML
UniProt P23434: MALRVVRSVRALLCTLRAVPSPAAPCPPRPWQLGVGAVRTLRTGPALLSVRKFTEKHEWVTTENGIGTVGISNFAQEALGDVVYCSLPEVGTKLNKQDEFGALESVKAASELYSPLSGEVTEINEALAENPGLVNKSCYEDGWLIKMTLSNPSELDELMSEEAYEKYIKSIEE
UniProt Q8WXD5: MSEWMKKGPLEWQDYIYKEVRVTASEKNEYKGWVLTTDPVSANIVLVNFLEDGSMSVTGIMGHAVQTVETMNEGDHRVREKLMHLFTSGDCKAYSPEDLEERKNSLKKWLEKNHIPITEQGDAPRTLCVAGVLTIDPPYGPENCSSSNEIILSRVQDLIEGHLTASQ

Some of the results follow.

Compound in the first experiment: CC1=C(C2=C(C=C1)C(=O)C3=CC=CC=C3N2CCCN)C
In words: log2 fold change, soluble protein after heating vs DMSO (PISA); higher = thermal stabilisation; K562 lysate, 10 uM; active = over 0.2 and 3.5 SD of the protein, either way, in both replicates (recomputed). Put shortly: (§1)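 A 30 min treatment with 10 μM compound was applied to crude K562 extract at 1 mg/mL protein in PBS pH 7.4 with 1 mM MgCl2. Heating for 3 min spanned 48°C-58°C, after which aliquots were pooled, adjusted to 0.5% NP-40 at 4°C and spun at 21,000xg for 90 min. TMTpro 16plex LC-MS/MS of the supernatant, with channel sums equalised, gave values recorded as log-two fold change in thermal stability against solvent controls, from duplicates.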
As for FTSJ1 (UniProt Q9UET6), the log2 fold change was inactive: 0.069.

GCC2 (UniProt Q8IWJ2): the log2 fold change is inactive: -0.018.

For GALNT7 (UniProt Q86SF2), the log2 fold change is inactive: -0.02.

GEMIN2 (UniProt O14893): the log2 fold change was inactive: -0.025.

GANAB isoform 2 (UniProt Q14697): the log2 fold change was inactive: -0.009.

Turning to GALNT5 (UniProt Q7Z7M9), the log2 fold change is inactive: 0.038.

For GALNT2 (UniProt Q10471), the log2 fold change is inactive: 0.031.

Consider G3BP2 (UniProt Q9UN86), for which the log2 fold change was inactive: -0.059.

As for GBA (UniProt P04062), the log2 fold change is inactive: 0.022.

Turning to FUCA1 (UniProt P04066), the log2 fold change was inactive: -0.046.

As for GATAD2B (UniProt Q8WXI9), the log2 fold change is inactive: 0.039.

Turning to FREM2 (UniProt Q5SZK8), the log2 fold change is inactive: -0.01.

Take FRRS1 (UniProt Q6ZNA5): the log2 fold change is inactive: -0.033.

With GCC1 (UniProt Q96CN9), the log2 fold change is inactive: 0.028.

For FXN (UniProt Q16595), the log2 fold change is inactive: 0.018.

On to GABPB1 (UniProt Q06547), for which the log2 fold change is inactive: -0.026.

For the target FPGT (UniProt O14772), the log2 fold change was inactive: 0.029.

Take GALM (UniProt Q96C23): the log2 fold change was inactive: 0.021.

With GALNT1 (UniProt Q10472), the log2 fold change was inactive: 0.049.

In the case of GAPDH (UniProt P04406), the log2 fold change was inactive: -0.008.

As for GFER (UniProt P55789), the log2 fold change is inactive: 0.015.

In the case of GFPT1 (UniProt Q06210), the log2 fold change is inactive: 0.012.

Consider GART (UniProt P22102), for which the log2 fold change is inactive: 0.009.

With GALNT12 (UniProt Q8IXK2), the log2 fold change is inactive: -0.017.

For GFM1 (UniProt Q96RP9), the log2 fold change was inactive: 0.011.

Take FYB1 isoform 3 (UniProt O15117): the log2 fold change was inactive: -0.042.

On to GABARAP (UniProt O95166), for which the log2 fold change was inactive: -0.013.

With GCSH (UniProt P23434), the log2 fold change is inactive: -0.013.

With GARS1 (UniProt P41250), the log2 fold change was inactive: -0.001.

In the case of GEMIN6 (UniProt Q8WXD5), the log2 fold change is inactive: -0.01.

With GALNS (UniProt P34059), the log2 fold change was inactive: 0.021.

GALE (UniProt Q14376): the log2 fold change was inactive: -0.009.

Regarding FSCN1 (UniProt Q16658), the log2 fold change was inactive: 0.021.

Compound in a further experiment: CC1=C(C=C(C=C1)NC(=O)C2=CC(=CC=C2)C(C)(C)C#N)NC3=CC4=C(C=C3)N=CN(C4=O)C
The description is as above. The gist of the method: as §1
FTSJ1 (UniProt Q9UET6): the log2 fold change is inactive: -0.024.

Regarding GCC2 (UniProt Q8IWJ2), the log2 fold change was inactive: 0.031.

Take GALNT7 (UniProt Q86SF2): the log2 fold change is inactive: 0.024.

With GEMIN2 (UniProt O14893), the log2 fold change is inactive: -0.045.

For the target GANAB isoform 2 (UniProt Q14697), the log2 fold change was inactive: -0.015.

Consider GALNT5 (UniProt Q7Z7M9), for which the log2 fold change is inactive: -0.025.

With GALNT2 (UniProt Q10471), the log2 fold change was inactive: -0.041.

As to G3BP2 (UniProt Q9UN86), the log2 fold change was inactive: -0.096.

For GBA (UniProt P04062), the log2 fold change is inactive: 0.054.

For the target FUCA1 (UniProt P04066), the log2 fold change is inactive: 0.037.

Regarding GATAD2B (UniProt Q8WXI9), the log2 fold change was inactive: -0.033.

FREM2 (UniProt Q5SZK8): the log2 fold change was inactive: 0.079.

As for FRRS1 (UniProt Q6ZNA5), the log2 fold change is inactive: -0.013.

For GCC1 (UniProt Q96CN9), the log2 fold change is inactive: 0.034.

For the target FXN (UniProt Q16595), the log2 fold change was inactive: 0.042.

As for GABPB1 (UniProt Q06547), the log2 fold change is inactive: 0.003.

Consider FPGT (UniProt O14772), for which the log2 fold change was inactive: 0.02.

Consider GALM (UniProt Q96C23), for which the log2 fold change is inactive: 0.008.

As to GALNT1 (UniProt Q10472), the log2 fold change was inactive: 0.001.

As for GAPDH (UniProt P04406), the log2 fold change is inactive: -0.037.

In the case of GFER (UniProt P55789), the log2 fold change was inactive: 0.056.

On to GFPT1 (UniProt Q06210), for which the log2 fold change was inactive: 0.009.

As to GART (UniProt P22102), the log2 fold change is inactive: -0.027.

As for GALNT12 (UniProt Q8IXK2), the log2 fold change is inactive: -0.052.

As for GFM1 (UniProt Q96RP9), the log2 fold change is inactive: 0.012.

For the target FYB1 isoform 3 (UniProt O15117), the log2 fold change was inactive: 0.059.

Regarding GABARAP (UniProt O95166), the log2 fold change was inactive: -0.012.

In the case of GCSH (UniProt P23434), the log2 fold change is inactive: -0.008.

Regarding GARS1 (UniProt P41250), the log2 fold change is inactive: -0.014.

As to GEMIN6 (UniProt Q8WXD5), the log2 fold change was inactive: -0.007.

With GALNS (UniProt P34059), the log2 fold change was inactive: 0.011.

Consider GALE (UniProt Q14376), for which the log2 fold change was inactive: -0.023.

As to FSCN1 (UniProt Q16658), the log2 fold change was inactive: -0.001.

Compound in another experiment: CC1=C(C=C(C=C1)NC(=O)C2=CC(=CC=C2)N(C)C)NC(=O)C3=CC=C(C=C3)O
Described as above. Put shortly: as §1
As for FTSJ1 (UniProt Q9UET6), the log2 fold change was inactive: 0.062.

On to GCC2 (UniProt Q8IWJ2), for which the log2 fold change is inactive: -0.001.

For the target GALNT7 (UniProt Q86SF2), the log2 fold change was inactive: -0.004.

GEMIN2 (UniProt O14893): the log2 fold change is inactive: 0.006.

On to GANAB isoform 2 (UniProt Q14697), for which the log2 fold change was inactive: 0.01.

On to GALNT5 (UniProt Q7Z7M9), for which the log2 fold change is inactive: -0.003.

For GALNT2 (UniProt Q10471), the log2 fold change is inactive: -0.012.

For the target G3BP2 (UniProt Q9UN86), the log2 fold change is inactive: -0.007.

With GBA (UniProt P04062), the log2 fold change is inactive: 0.012.

FUCA1 (UniProt P04066): the log2 fold change was inactive: -0.009.

GATAD2B (UniProt Q8WXI9): the log2 fold change is inactive: 0.061.

Regarding FREM2 (UniProt Q5SZK8), the log2 fold change is inactive: 0.035.

With FRRS1 (UniProt Q6ZNA5), the log2 fold change was inactive: 0.

Take GCC1 (UniProt Q96CN9): the log2 fold change is inactive: 0.004.

For FXN (UniProt Q16595), the log2 fold change was inactive: -0.023.

For the target GABPB1 (UniProt Q06547), the log2 fold change was inactive: 0.071.

For the target FPGT (UniProt O14772), the log2 fold change is inactive: 0.003.

For the target GALM (UniProt Q96C23), the log2 fold change was inactive: -0.023.

For the target GALNT1 (UniProt Q10472), the log2 fold change was inactive: 0.049.

Turning to GAPDH (UniProt P04406), the log2 fold change was inactive: -0.014.

With GFER (UniProt P55789), the log2 fold change is inactive: -0.064.

Turning to GFPT1 (UniProt Q06210), the log2 fold change was inactive: 0.014.

For the target GART (UniProt P22102), the log2 fold change was inactive: -0.006.

On to GALNT12 (UniProt Q8IXK2), for which the log2 fold change was inactive: -0.017.

For the target GFM1 (UniProt Q96RP9), the log2 fold change was inactive: -0.008.

Turning to FYB1 isoform 3 (UniProt O15117), the log2 fold change is inactive: 0.008.

For GABARAP (UniProt O95166), the log2 fold change is inactive: -0.021.

On to GCSH (UniProt P23434), for which the log2 fold change was inactive: 0.032.

Turning to GARS1 (UniProt P41250), the log2 fold change is inactive: -0.001.

In the case of GEMIN6 (UniProt Q8WXD5), the log2 fold change is inactive: 0.032.

On to GALNS (UniProt P34059), for which the log2 fold change is inactive: 0.02.

Regarding GALE (UniProt Q14376), the log2 fold change was inactive: 0.024.

Regarding FSCN1 (UniProt Q16658), the log2 fold change is inactive: 0.007.
